Results deposited as PubChem BioAssay AID1053208 (Peter MacCallum Cancer Centre, 2014).

Screen: 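Synthetic lethal interactions between gene loss and doxorubicin in osteosarcoma cells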 (primary screen)
System: mouse osteosarcoma cells, early-passage culture from an engineered mouse model of fibroblastic bone tumour
Reagents: siRNA pool against mouse genes, 40 nM
Timing: about 120 h (48 h before drug, then 72 h with drug)
Challenge: doxorubicin 100 nM for 72 h, roughly 30-40% inhibitory dose
Measured: 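Luminescent ATP signal taken as viability with or without 100 nM doxorubicin for 72 h; mean of two wells set against non-targeting siRNA and turned into robust z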
Reading the numbers: viability z-score with doxorubicin: higher = more viable cells under doxorubicin; viability z-score without drug: higher = more viable cells with knock-down alone
Call rule: 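a pool counts as active when its viability z-score with doxorubicin is -2 or below and its z-score without drug lies between -2 and 2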
In all, the deposit lists about 17,000 reagents; this is an unselected part. 788 of all reagents (4.7%) count as active. 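Calls rest on z-score classes alone; an extra cut-off of viability at most 70% of control was not applied to them.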 A number with no mark means an inactive call. Not all columns of the deposit are shown. Reagent sequences are not shown.

For Taok3 (TAO kinase 3), what was measured?
combined z-score class: no change with or without drug; viability z-score with doxorubicin: -0.56; viability z-score without drug: -0.67

For Uck2 (uridine-cytidine kinase 2), how do the results read?
combined z-score class: low cell count without drug only; viability z-score with doxorubicin: -1.46; viability z-score without drug: -2.53

With Nlrp4c (NLR family, pyrin domain containing 4C), what does the deposit list?
combined z-score class: low cell count with doxorubicin only (active); viability z-score with doxorubicin: -2.02; viability z-score without drug: -1.85

What did the screen give for Mmp14 (matrix metallopeptidase 14 (membrane-inserted))?
combined z-score class: no change with or without drug; viability z-score with doxorubicin: 0.11; viability z-score without drug: -0.51

What did the screen give for Ptch1 (patched 1)?
combined z-score class: no change with or without drug; viability z-score with doxorubicin: -0.22; viability z-score without drug: 0.51

What is on record for Aldoart2 (aldolase 1 A, retrogene 2)?
combined z-score class: no change with or without drug; viability z-score with doxorubicin: -0.9; viability z-score without drug: 0.84

With Dtd2 (D-tyrosyl-tRNA deacylase 2), what was measured?
combined z-score class: low cell count without drug only; viability z-score with doxorubicin: -1.35; viability z-score without drug: -2.87

With Avp (arginine vasopressin), what was measured?
combined z-score class: no change with or without drug; viability z-score with doxorubicin: 0; viability z-score without drug: -0.17

With Ppm1f (protein phosphatase 1F (PP2C domain containing)), what was measured?
combined z-score class: no change with or without drug; viability z-score with doxorubicin: -0.45; viability z-score without drug: 0.17

What is on record for Dok4 (docking protein 4)?
combined z-score class: no change with or without drug; viability z-score with doxorubicin: -0.11; viability z-score without drug: -0.51

For Rab12 (RAB12, member RAS oncogene family), how do the results read?
combined z-score class: no change with or without drug; viability z-score with doxorubicin: 1.12; viability z-score without drug: 0

For Kctd2 (potassium channel tetramerisation domain containing 2), what was measured?
combined z-score class: no change with or without drug; viability z-score with doxorubicin: -0.34; viability z-score without drug: 0.34

What did the screen give for Ankle2 (ankyrin repeat and LEM domain containing 2)?
combined z-score class: low cell count with and without drug; viability z-score with doxorubicin: -3.04; viability z-score without drug: -2.19

With Hoxd1 (homeobox D1), how do the results read?
combined z-score class: no change with or without drug; viability z-score with doxorubicin: 0.79; viability z-score without drug: 0.51

What did the screen give for A530016L24Rik (RIKEN cDNA A530016L24 gene)?
combined z-score class: no change with or without drug; viability z-score with doxorubicin: -0.22; viability z-score without drug: -0.51

For Vps35 (VPS35 retromer complex component), how do the results read?
combined z-score class: no change with or without drug; viability z-score with doxorubicin: 0; viability z-score without drug: 0

What is on record for Hnrnpl (heterogeneous nuclear ribonucleoprotein L)?
combined z-score class: no change with or without drug; viability z-score with doxorubicin: -0.45; viability z-score without drug: 0

For Slc25a32, what does the deposit list?
combined z-score class: no change with or without drug; viability z-score with doxorubicin: -0.56; viability z-score without drug: -0.84

With Rgs8 (regulator of G-protein signaling 8), what was measured?
combined z-score class: no change with or without drug; viability z-score with doxorubicin: 0; viability z-score without drug: -0.34
